Assay results taken from publication PMC8274477.
Results are given in words; binding and its absence hold for the method and conditions named. Some results given as binding are weak or reduced against the parent protein; the word gives no strength.

Amino acid sequences for entries named in this document (tags omitted).
UniProt Q8TBF8: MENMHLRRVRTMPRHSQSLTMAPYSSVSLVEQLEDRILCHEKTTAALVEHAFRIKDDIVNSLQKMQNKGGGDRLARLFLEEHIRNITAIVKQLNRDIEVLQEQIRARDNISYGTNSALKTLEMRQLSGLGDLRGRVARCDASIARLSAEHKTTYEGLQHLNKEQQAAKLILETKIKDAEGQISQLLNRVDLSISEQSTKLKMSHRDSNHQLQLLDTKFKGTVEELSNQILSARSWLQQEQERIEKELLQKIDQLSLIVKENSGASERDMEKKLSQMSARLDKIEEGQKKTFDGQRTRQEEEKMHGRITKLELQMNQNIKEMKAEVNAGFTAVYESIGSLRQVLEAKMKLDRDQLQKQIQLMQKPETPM
UniProt Q9H361: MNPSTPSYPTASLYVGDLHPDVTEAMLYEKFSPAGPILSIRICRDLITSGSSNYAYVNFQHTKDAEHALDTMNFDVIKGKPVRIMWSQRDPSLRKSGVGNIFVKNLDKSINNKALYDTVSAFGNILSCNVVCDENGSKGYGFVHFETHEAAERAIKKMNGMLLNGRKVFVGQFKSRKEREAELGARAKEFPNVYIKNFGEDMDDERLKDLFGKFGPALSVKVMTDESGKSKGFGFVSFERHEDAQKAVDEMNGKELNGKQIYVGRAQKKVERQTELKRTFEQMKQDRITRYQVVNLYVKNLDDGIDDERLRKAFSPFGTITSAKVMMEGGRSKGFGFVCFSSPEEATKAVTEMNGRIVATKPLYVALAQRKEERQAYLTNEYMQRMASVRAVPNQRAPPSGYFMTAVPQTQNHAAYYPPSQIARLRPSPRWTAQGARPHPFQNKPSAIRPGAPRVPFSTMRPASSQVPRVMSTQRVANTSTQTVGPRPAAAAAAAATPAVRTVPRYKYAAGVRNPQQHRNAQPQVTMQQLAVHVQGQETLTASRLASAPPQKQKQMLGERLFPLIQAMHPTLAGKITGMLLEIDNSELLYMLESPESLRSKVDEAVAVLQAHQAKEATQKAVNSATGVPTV

How the values were obtained:
Assay in all cases: peptide or protein array; HuProt human proteome microarray; 5 ug/5 ml biotin-labelled LUBAC or OTULIN in solution, 1 h at room temperature; Cy5-streptavidin, scanned at 635 nm; BSA as negative control; hits: Z-score >= 3 and I_(Mean_Ratio) >= 1.4; both purified
FAM81A (human) = FAM81A (human) (UniProt Q8TBF8)
PABPC3 (human) = PABPC3 (human) (UniProt Q9H361)
VAT1 (human) = target: T1, VAT1 (human) (UniProt Q99536)
T1 sequence: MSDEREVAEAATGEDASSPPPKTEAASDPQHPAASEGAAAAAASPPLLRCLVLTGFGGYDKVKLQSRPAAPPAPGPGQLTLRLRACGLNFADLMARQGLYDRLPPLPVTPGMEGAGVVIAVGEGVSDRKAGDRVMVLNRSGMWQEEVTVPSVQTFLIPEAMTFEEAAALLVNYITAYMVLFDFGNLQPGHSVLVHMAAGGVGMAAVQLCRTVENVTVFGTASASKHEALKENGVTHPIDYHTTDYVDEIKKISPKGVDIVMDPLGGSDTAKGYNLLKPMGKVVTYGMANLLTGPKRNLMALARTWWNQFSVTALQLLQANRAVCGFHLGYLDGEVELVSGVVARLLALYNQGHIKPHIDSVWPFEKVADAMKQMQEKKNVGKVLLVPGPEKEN

SORBS3 (human) = target: T2, SORBS3 (human) (UniProt O60504)
T2 sequence: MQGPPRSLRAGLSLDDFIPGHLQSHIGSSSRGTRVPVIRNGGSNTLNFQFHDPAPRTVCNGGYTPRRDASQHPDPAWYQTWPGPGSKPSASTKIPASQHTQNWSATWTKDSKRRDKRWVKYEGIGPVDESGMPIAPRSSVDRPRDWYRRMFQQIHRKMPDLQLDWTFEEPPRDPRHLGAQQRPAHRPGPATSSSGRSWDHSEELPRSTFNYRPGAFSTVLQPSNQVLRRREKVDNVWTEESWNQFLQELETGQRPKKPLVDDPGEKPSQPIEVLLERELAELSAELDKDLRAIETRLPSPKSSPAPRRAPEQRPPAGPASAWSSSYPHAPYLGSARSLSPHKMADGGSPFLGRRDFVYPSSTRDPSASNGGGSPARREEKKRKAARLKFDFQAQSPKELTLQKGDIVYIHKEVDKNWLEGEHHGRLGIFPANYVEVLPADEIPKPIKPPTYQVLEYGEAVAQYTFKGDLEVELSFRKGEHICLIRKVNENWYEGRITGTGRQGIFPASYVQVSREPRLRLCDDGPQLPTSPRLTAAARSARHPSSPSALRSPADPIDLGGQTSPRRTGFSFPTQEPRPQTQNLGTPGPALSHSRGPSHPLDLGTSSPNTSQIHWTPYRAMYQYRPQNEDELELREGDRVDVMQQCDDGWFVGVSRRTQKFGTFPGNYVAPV

C21orf59 (human) = target: T3, C21orf59 (human) (UniProt P57076)
T3 sequence: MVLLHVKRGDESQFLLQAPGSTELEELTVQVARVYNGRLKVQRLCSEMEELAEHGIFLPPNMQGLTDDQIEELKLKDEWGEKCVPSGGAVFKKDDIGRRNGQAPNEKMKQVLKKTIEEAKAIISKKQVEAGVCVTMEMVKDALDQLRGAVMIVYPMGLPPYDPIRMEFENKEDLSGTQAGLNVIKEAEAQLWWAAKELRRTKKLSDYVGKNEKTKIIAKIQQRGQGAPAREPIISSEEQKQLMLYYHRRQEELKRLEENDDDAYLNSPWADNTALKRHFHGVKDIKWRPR

TIA1 (human) = target: T4, TIA1 (human) (UniProt P31483)
T4 sequence: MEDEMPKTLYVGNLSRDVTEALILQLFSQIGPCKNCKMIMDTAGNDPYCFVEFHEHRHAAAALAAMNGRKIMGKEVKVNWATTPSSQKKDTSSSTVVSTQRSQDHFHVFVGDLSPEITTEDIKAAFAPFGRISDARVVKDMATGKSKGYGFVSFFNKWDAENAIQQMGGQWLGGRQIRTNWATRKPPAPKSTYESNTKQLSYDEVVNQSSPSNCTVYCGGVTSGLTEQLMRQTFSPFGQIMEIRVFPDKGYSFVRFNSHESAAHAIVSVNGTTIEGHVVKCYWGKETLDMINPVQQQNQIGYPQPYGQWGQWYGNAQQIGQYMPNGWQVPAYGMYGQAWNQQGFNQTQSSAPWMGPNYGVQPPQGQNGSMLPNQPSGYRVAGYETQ

Measured: binding

linear ubiquitin chain assembly complex (LUBAC), purified as HIS-tagged HOIP with the subunit HOIL-1, biotin-labelled (from UniProt Q96EP0 1-1072; Q9BYM8 1-510)
binds: all assays above
